Results as given in publication PMC10164574, “Fission yeast Swi2 designates cell-type specific donor and stimulates Rad51-driven strand exchange for mating-type switching”.

Assays:
Assay in all cases: EMSA
[1] = biological target: T1, Swi2N AT12-AA G219A,R220A,P221A,G242A,R243A,P244A (Schizosaccharomyces pombe) (UniProt Q10668); conditions: 20 mM Tris-HCl pH 7.5, 100 mM NaCl, 5% glycerol, 1 mM DTT, room temperature 10 min, 1% agarose in TAE, recombinant protein, residues 1-391, protein details: His-SUMO removed by Ulp1, probe letters rebuilt from the primers and the genome
T1 sequence (looked up): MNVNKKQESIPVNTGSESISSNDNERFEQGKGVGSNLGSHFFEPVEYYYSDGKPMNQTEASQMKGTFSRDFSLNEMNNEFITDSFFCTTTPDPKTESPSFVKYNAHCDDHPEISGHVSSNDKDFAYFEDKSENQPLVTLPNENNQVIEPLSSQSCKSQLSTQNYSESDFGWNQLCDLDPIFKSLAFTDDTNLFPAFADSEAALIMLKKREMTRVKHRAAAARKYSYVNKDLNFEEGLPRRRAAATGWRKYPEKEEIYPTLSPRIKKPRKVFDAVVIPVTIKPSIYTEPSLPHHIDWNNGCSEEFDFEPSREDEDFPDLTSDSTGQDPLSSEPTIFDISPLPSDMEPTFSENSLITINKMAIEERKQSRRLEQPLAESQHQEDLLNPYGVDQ

Swi2C + Swi5 = conditions: modest binding; 20 mM Tris-HCl pH 7.5, 100 mM NaCl, 5% glycerol, 1 mM DTT, room temperature 10 min; 1% agarose in TAE; recombinant protein; protein details: His-SUMO removed by Ulp1; probe letters rebuilt from the primers and the genome
[2] = biological target: T2, Swi2N (Schizosaccharomyces pombe) (UniProt Q10668); conditions: 20 mM Tris-HCl pH 7.5, 100 mM NaCl, 5% glycerol, 1 mM DTT, room temperature 10 min; 1% agarose in TAE; recombinant protein; residues 1-391; protein details: His-SUMO removed by Ulp1; probe letters rebuilt from the primers and the genome
T2 sequence (looked up): T1 sequence (looked up) with A219G, A220R, A221P, A242G, A243R, A244P

[3] = biological target: T3, Swi2N AT1-A G219A,R220A,P221A (Schizosaccharomyces pombe) (UniProt Q10668); conditions: 20 mM Tris-HCl pH 7.5, 100 mM NaCl, 5% glycerol, 1 mM DTT, room temperature 10 min, 1% agarose in TAE, recombinant protein, residues 1-391, protein details: His-SUMO removed by Ulp1, probe letters rebuilt from the primers and the genome
T3 sequence (looked up): T1 sequence (looked up) with A242G, A243R, A244P

[4] = biological target: T4, Swi2N AT2-A G242A,R243A,P244A (Schizosaccharomyces pombe) (UniProt Q10668); conditions: 20 mM Tris-HCl pH 7.5, 100 mM NaCl, 5% glycerol, 1 mM DTT, room temperature 10 min, 1% agarose in TAE, recombinant protein, residues 1-391, protein details: His-SUMO removed by Ulp1, probe letters rebuilt from the primers and the genome
T4 sequence (looked up): T1 sequence (looked up) with A219G, A220R, A221P

| Sequence | binding result ([1]; similar trend to SRE3) | binding result (Swi2C + Swi5) | binding result [2] | binding result ([3]; similar trend to SRE3) | binding result ([4]; similar trend to SRE3) | binding result ([1]; drastically reduced, no stable complex) | binding result ([3]; slightly reduced shift) | binding result ([4]; slightly reduced shift) |
| --- | --- | --- | --- | --- | --- | --- | --- | --- |
| AGAATGCTCTATGGTTGAGGAAGTGGAACGTAAGATATTAAAGGAATAGGGATGTGAATGTAAAGAGTGGGTAGATGCATTTGGGATGAGGTTTAATATATGTTTATAAAGGAAAATGGCTAATGGATATGAAGTATTGGTGTAAGGAGTTCAAGATGTATGGGGAGAAAGAGGATGGTTGATGGAGTGGTTGAGCGAGGAAAGTGTTGAAGTATAGTGTGTATGGTAGGAATGAGTAATGAGATGTAGTGAAAGTATAATATTAGTGAGTATATTATGGTAGGGAGTGCGTAGCGTAGCGAAGCAAATATCTCGTTAGAGGGAAGGGGAAGGTAGAAGGGCGCACACAAAAAGGGAAAATTGGAGGGAGAATGAATGACACGAACAGCATAATTGGAAA (double strand) [mat1 400 bp] | binds more weakly | binds | binds | binds more weakly | binds more weakly |  |  |  |
| GCGAAGCATATTTCTTGCTAATCTTTTGTTTTATATTTAAAATGTTTTAAATATAGGCACAAAATAACGTGAAATCAACCACAAGGTAAATTTACTATAATATTTATTTTTATAATAAGAATCATCAGCAATTGGTAATAATTATTTTTGGTAAATTGAGTAATATATTAACGCTTTATAAATTCGTTTATTAATCCTGTTTAAAATCAAATCGCATTTAATTGCTTAAAATACAGATGCCAATAACTTCGTGGTATTCGGAAATATCGGTATCCAAAAAGGGATTTTTATTTTAATTCAACAATTAAAATTAATGTATGAAATAAATTTGATGAATATGTAAGTATTTAAACGATTTCGACGGATATGATCTACAATGCTGAACAGCATAATCACAAAC (double strand) [SRE2 400 bp] | binds more weakly | binds | binds | binds more weakly | binds more weakly |  |  |  |
| GGGTAAGAAGAACTTTTATTTATTTATTTGCCAACTACTGTTAGATATTTTTGAGCAAGTTATTTTATTTTAACTTAAAAATATGTTTCCAGTTTTCAAAAAAATTATATTAAAGCGCCTAGCGATTGATGTCAGTGAAATATTTGTAGTGAATGTGTTGAGAAAAACTGTACAAATGATCACGTTTAATAGGTAAAACAATTCTAATTTATTAATTTACTATATACTCAATATCAGGTTATAATTTGAACATTATAGTTGTTGCTAAATGATGATATCGTTATGTTGGCAAAACGATTGCTTTTTTTGTTTAAAACTATTCTAAACTGCTTTTAAAAACACAAAATGCGCATTTTTTCCCAAAAGACAGACTATCGGCCAAACAAACATATTTGGATAA (double strand) [SRE3 400 bp] |  | binds | binds |  |  | binds more weakly | binds more weakly | binds more weakly |

Substitutions are numbered along the chain they refer to. For part of these data: Weaker means in comparison with the reference protein, sequence or condition of that experiment. For part of these data: Where a protein sequence is shown, tags need not be part of it. For part of these data: For at least one entry, the source does not settle the construct or the ends of the probe. For part of these data: At least one verdict was read from the data and is not stated in words by the source.
